In PMC8346516 (Nature Communications, 2021) one finds binding data, which are given here for one substance.

Amino acid sequences for entries named in this document (tags omitted).
UniProt Q8NHX9: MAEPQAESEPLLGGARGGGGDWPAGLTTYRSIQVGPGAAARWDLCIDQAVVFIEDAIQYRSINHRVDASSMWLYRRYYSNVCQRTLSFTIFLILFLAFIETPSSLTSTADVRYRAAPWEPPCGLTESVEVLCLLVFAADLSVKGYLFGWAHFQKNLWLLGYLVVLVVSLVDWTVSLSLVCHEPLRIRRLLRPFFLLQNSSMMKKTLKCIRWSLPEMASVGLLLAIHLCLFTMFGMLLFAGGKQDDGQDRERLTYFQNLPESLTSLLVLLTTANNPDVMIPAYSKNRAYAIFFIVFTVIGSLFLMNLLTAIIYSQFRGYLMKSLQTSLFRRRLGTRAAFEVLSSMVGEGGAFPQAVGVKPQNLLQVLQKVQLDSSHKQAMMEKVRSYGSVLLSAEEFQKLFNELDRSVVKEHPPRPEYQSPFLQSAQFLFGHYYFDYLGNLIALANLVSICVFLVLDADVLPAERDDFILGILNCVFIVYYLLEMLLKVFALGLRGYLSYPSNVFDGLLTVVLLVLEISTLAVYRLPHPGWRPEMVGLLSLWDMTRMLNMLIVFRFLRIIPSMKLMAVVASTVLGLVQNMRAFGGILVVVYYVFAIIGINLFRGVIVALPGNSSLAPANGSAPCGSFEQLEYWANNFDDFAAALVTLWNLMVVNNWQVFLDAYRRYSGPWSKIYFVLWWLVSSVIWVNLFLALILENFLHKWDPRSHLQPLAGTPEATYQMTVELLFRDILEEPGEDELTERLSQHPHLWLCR
UniProt Q3MHD2: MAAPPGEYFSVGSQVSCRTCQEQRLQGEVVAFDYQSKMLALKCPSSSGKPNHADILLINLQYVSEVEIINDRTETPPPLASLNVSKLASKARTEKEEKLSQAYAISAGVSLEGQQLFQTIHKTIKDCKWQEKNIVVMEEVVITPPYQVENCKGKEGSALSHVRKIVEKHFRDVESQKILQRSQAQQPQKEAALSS

The test concerns the target human TPC2 (TPC2-eGFP-FLAG) (human) (UniProt Q8NHX9). The test is described as follows: affinity purification with mass spectrometry; anti-FLAG antibody on protein-A agarose; SILAC heavy/light HEK293 cells expressing TPC1-eGFP-FLAG or TPC2-eGFP-FLAG against eGFP-FLAG only; lysis in 2% dodecyl maltoside, 150 mM NaCl, 20 mM Tris-HCl pH 7.4; overnight at 4 °C; eluted with FLAG peptide; LC-MS/MS.

Results are given in words; binding and its absence hold for the method and conditions named. In cells and extracts the contact can be indirect. These calls come from enrichment with a bait or labelling near it, and not all partners need be listed.

Consider “endogenous Lsm12 (from UniProt Q3MHD2 1-195)”, for which the binding entry is “binds”.
